According to US7105679B2, “Heteroatom containing tetracyclic derivatives as selective estrogen receptor modulators” (priority 2001, dated 2006):
A number of entries come with more than one value. This is not the full list of results. The source may hold further records. Results that share an entry differ, and nothing given here explains why; dose, time, organism, isomer or construct need not be as stated for each record.

Amino acid sequences for entries named in this document (tags omitted).
UniProt P03372, whole entry: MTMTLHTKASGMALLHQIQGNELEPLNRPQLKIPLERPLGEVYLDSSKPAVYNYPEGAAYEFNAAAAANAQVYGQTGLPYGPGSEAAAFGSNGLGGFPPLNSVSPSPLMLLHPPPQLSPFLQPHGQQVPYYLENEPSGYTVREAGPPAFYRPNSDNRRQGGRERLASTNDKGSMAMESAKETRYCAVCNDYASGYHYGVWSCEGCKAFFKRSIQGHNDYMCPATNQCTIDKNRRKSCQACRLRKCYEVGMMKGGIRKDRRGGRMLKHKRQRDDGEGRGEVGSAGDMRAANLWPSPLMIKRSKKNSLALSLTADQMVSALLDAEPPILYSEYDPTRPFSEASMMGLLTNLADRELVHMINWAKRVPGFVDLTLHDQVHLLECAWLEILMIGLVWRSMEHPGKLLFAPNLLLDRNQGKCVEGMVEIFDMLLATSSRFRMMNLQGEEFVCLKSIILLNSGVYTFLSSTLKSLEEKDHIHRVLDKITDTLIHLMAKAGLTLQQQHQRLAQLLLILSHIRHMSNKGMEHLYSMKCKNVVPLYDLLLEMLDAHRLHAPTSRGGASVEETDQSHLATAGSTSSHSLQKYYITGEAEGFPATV

Molecular target: human estrogen receptor α (Homo sapiens, UniProt P03372)
Assay: Estrogen Receptor α Flash Plate Assay (binding of radiolabeled estrogen)
Settings: read-out: Estrogen Receptor α in μM (No.), 0.5 nM radiolabeled estrogen, number in brackets = No. of determinations, NA = no detected activity at test concentration

Oc1ccc2c(c1)OC(c1ccc(OCCN3CCCCC3)cc1)C1=C2COc2cc(O)ccc21 (single isomer, unassigned)
IC50: 17 nM and 6.4 nM
